# Laboratory results: patent publication US12280059B2, “Acyl-CoA synthetase 4 (ACSL4) inhibitory compound” (CONSEJO NACIONAL DE INVESTIGACIONES CIENTÍFICAS Y TÉCNICAS …, priority 2019, dated 2025)
# At least one structure is not confirmed: it was looked up by name or label, or the drawing left a doubt.
# Tests used:
# MA-10 Leydig cells = assay: Steroidogenesis assay, progesterone production in cAMP-stimulated MA-10 Leydig cells; type: cell-based, mouse
# Procedure: (§1) In the present example, ACSL4 inhibitor effects on steroid production were tested by stimulating MA 10 Leydig and Y1 adrenal cells with cAMP (0.5 mM) for 1 hour and assessing progesterone levels. MA-10 mouse Leydig tumor cells were generously provided by Dr. Mario Ascoli (University of Iowa, Iowa City, Iowa) and cultured in Waymouth MB/752 medium supplemented with 15% horse serum and antibiotics at 37° C. and 5% CO2 as previously described. The culture medium was replaced with serum-free Waymouth medium before experiments.
# Y1 adrenal cells = assay: Steroidogenesis assay, progesterone production in cAMP-stimulated Y1 adrenal cells; type: cell-based, mouse
# Procedure: as §1
# Murine Y1 adrenocortical tumor cells were generously provided by Dr B Schimmer (University of Toronto, Toronto, Canada). Methods for the culture of Y1 mouse adrenal tumor cells (American Type Culture Collection, Rockville, MD, USA) have been published elsewhere (Schimmer 1979). Cells were maintained at 37 C in growth medium (HAM F10) containing fetal bovine (2·5%) and horse (12·5%) sera.
smiles,measurement,setting,value
"C[C@]12CC[C@H](O)CC1=CC[C@@H]1[C@@H]2CC[C@]2(C)C(c3cccnc3)=CC[C@@H]12 [abiraterone, reference compound]",inhibition of progesterone synthesis,MA-10 Leydig cells,failed to inhibit progesterone production
same,inhibition of progesterone synthesis,Y1 adrenal cells,failed to inhibit progesterone production
